Data on 8 molecules can be found in paper PMC3281849.

Chains of the proteins cited; added tags and fusions are not shown.
UniProt P19073: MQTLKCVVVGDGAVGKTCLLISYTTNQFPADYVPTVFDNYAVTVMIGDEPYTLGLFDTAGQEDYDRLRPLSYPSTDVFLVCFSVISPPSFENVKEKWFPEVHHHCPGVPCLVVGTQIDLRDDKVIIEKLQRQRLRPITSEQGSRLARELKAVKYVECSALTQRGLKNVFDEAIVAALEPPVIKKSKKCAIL
UniProt Q1ZXH8: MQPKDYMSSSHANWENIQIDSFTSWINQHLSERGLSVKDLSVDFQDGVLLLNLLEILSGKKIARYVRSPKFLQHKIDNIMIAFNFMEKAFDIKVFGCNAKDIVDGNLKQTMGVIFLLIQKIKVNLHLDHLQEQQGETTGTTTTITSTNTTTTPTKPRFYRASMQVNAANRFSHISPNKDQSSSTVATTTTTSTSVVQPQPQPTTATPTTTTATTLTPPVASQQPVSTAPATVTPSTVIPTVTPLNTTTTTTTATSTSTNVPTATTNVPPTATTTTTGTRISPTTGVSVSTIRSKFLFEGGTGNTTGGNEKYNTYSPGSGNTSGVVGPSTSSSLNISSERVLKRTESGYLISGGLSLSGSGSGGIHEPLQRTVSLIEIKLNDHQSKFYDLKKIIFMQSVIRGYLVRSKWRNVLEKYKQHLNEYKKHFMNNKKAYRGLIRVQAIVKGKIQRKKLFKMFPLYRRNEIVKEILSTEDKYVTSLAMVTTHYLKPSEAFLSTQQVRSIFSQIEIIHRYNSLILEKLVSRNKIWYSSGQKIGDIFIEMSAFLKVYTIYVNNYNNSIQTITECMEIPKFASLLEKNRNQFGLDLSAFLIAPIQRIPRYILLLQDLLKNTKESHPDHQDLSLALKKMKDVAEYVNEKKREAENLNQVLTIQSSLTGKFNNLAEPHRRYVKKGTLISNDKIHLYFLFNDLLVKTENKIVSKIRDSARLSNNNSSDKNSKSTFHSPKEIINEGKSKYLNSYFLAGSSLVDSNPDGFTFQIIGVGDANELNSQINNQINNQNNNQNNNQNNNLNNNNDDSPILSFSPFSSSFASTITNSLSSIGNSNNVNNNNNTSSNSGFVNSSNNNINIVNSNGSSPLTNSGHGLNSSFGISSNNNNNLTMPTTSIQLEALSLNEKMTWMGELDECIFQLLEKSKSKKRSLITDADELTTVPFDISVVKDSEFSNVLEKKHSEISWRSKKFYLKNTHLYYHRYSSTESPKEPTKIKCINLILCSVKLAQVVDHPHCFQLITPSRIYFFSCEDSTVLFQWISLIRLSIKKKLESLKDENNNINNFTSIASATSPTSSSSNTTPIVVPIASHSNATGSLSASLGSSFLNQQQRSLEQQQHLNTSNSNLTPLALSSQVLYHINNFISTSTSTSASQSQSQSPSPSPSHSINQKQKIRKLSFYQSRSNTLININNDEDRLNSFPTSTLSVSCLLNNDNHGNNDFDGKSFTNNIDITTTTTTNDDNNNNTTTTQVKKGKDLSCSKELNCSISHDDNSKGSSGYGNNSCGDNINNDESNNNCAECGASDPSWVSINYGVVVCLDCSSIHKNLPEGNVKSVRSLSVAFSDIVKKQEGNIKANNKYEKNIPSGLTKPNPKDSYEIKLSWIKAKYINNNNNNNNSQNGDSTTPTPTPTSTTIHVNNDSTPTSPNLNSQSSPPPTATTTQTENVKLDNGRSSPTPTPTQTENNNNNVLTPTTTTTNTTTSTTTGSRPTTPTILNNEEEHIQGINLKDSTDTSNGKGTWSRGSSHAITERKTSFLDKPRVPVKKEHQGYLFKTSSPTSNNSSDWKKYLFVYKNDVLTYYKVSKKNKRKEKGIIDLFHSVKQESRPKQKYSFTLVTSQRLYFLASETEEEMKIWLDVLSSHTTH

In test [1] the target is T1, D. discoideum ribosomal protein S4 (DdS4), expressed in S. cerevisiae (D. discoideum) (UniProt P51405).
T1 sequence: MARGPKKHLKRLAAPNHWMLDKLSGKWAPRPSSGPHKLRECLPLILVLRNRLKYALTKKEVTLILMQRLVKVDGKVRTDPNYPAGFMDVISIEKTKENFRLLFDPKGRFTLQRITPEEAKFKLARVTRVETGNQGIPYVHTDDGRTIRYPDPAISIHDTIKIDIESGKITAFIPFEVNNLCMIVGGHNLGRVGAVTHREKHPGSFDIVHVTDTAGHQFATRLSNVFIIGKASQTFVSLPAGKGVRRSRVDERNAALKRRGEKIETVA
Kind of test: co-IP; lysates of S. cerevisiae bem1 cells (lacking Bem1p) with DdS4; pull-down with anti-DdS4 antibody; blot with commercial anti-CDC24 or anti-CDC42.

The target in test [2] is T1, D. discoideum ribosomal protein S4 (DdS4), expressed in S. cerevisiae (D. discoideum). Nature of the test: co-IP; lysates of cells over-expressing the GST-tagged proteins mixed in equal volumes, with DdS4; precleared with pre-immune IgG and protein G Sepharose; anti-DdS4 antibody overnight at 4°C, protein G Sepharose 2 hrs; blot with anti-GST.
Test [3] has as its target T2, DdS4, endogenous in D. discoideum AX2 cells (D. discoideum (endogenous in AX2)) (UniProt P51405).
T2 sequence: T1 sequence
Nature of the test: co-IP; lysates of control AX2 D. discoideum cells; pull-down with anti-DdS4 antibody; blot with anti-human Cdc24 (MCF2/Dbl), anti-human Cdc42 or anti-GxcDD.

The target of test [4] is GST-tagged ScCdc42p (S. cerevisiae) (UniProt P19073). Nature of the test: pull-down; GST-tagged Cdc42p or Cdc24p from E. coli BL21 lysates held on GSH beads, incubated with a cell lysate over-expressing DdS4, 2 hrs at 4°C; washed with 50 mM HEPES, 100 mM NaCl, Triton X, 1 mM DTT, 5 mM EDTA; blot with anti-DdS4; only the target purified.
For test [5], the target named is T3, GST-tagged ScCdc24p (S. cerevisiae) (UniProt P11433).
T3 sequence: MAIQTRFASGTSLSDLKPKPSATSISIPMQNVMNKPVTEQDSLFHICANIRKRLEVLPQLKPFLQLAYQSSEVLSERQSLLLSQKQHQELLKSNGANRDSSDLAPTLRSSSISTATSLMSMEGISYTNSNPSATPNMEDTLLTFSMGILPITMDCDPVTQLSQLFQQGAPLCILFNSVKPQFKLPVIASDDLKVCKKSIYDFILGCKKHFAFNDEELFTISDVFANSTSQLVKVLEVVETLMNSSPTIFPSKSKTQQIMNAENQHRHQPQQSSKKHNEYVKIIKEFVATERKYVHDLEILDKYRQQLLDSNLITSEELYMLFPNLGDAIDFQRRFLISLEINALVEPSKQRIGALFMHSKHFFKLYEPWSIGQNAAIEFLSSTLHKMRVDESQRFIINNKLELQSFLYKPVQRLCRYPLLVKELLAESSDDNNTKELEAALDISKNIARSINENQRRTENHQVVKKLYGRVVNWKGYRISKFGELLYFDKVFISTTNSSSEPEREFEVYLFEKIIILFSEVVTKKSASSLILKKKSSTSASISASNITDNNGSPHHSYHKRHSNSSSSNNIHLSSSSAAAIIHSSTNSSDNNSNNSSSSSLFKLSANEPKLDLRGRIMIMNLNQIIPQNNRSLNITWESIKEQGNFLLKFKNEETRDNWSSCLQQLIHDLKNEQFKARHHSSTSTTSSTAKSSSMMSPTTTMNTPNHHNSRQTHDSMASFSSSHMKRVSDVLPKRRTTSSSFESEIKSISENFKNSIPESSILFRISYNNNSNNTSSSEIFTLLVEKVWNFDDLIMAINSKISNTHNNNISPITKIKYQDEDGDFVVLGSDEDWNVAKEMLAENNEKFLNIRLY
Described as above.

Results are given in words; binding and its absence hold for the method and conditions named. In cells and extracts the contact can be indirect. Some results given as binding are weak or reduced against the parent protein; the word gives no strength. For part of these data: Tags and fused reporters may be left off the sequences shown.

With “Endogenous ScCdc42p (from UniProt P19073 1-191)”, in test [1], the binding entry is on record as “binds”. “GST-tagged ScCdc42p (from UniProt P19073 1-191)”: in test [2], the binding result is given as “binds”. For “RacGEF GxcDD (from UniProt Q1ZXH8 1-1632)”, the binding entry in test [3] was “binds”.

B1: GST-tagged ScCla4p (protein, UniProt P48562 1-842)
chain: MSLSAAANKISDNDFQNIGPAPRPPSSNSQGRTCYNQTQPITKLMSQLDLTSASHLGTSTSKKKSGWVSYKDDGILSFIWQKRYLMLHDSYVALYKNDKQNDDAILKIPLTSIISVSRTQLKQYCFELVRCSDRNSVSSGSSSSLNVSSDSNSKKSIYIATKTESDLHSWLDAIFAKCPLLSGVSSPTNFTHKVHVGFDPETGSFVGMPTNWEKLLKHSRITGEDWNNNSAAVIQVLQFYQEYNGAGNPTNTLDKPQSGETSSSQKSLPNSYNDNKLRNNSVNSKSSSGVSSSMVSQRKTSQPPNTKSPVSLGSGSLPPINTKLPTSQSNIPRHLQNVPNQQYPKMRNGHSPTNGQFPRGPMHPNNSQRSLQQQQQQQQQQKQQHQQYPYHHQGPSPSPSPSPSPLNPYRPHHNMINPYSKQPQSPLSSQSTQNQAIPRYAQNSSPTAAHFQPQRTAPKPPISAPRAPYPSNQNATSNTHVQPVAPKNDQSTPQTMRQAPKRPDADVAQPGGVAKPKKPARPTMSTAEIMSKLKKVTVNADPSQCFKVIEKAGQGASGSVYLAERTHIPTESNMIELINNDIDEPHVGDKVAIKQMVLSKQPRKELIVNEILVMKDSRHKNIVNFLEAYLRTDDDLWVVMEFMEGGSLTDIIENSPTNDNSHSPLTEPQIAYIVRETCQGLKFLHDKHIIHRDIKSDNVLLDTRARVKITDFGFCARLTDKRSKRATMVGTPYWMAPEVVKQREYDEKIDVWSLGIMTIEMLEGEPPYLNEDPLKALYLIATNGTPKLKHPESLSLEIKRFLSVCLCVDVRYRASTEELLHHGFFNMACDPKDLTSLLEWKE
Take B1: the binding result in test [2] is recorded as “binds”.

B2: DdS4 in a cell lysate over-expressing DdS4 (GST pull-down) (protein, UniProt P51405 1-267)
chain: T1 sequence
B2: the binding result in test [4] and in test [5] was “binds” each time.

B3: GST-tagged ScBem1p (protein, UniProt P29366 1-551)
chain: MLKNFKLSKRDSNGSKGRITSADISTPSHDNGSVIKHIKTVPVRYLSSSSTPVKSQRDSSPKNRHNSKDITSPEKVIKAKYSYQAQTSKELSFMEGEFFYVSGDEKDWYKASNPSTGKEGVVPKTYFEVFDRTKPSSVNGSNSSSRKVTNDSLNMGSLYAIVLYDFKAEKADELTTYVGENLFICAHHNCEWFIAKPIGRLGGPGLVPVGFVSIIDIATGYATGNDVIEDIKSVNLPTVQEWKSNIARYKASNISLGSVEQQQQQSITKPQNKSAKLVDGELLVKASVESFGLEDEKYWFLVCCELSNGKTRQLKRYYQDFYDLQVQLLDAFPAEAGKLRDAGGQWSKRIMPYIPGPVPYVTNSITKKRKEDLNIYVADLVNLPDYISRSEMVHSLFVVLNNGFDREFERDENQNNIKTLQENDTATFATASQTSNFASTNQDNTLTGEDLKLNKKLSDLSLSGSKQAPAQSTSGLKTTKIKFYYKDDIFALMLKGDTTYKELRSKIAPRIDTDNFKLQTKLFDGSGEEIKTDSQVSNIIQAKLKISVHDI
Turning to B3, the binding entry in test [2] was “binds”.

B4: GST-tagged ScCdc24p (protein, UniProt P11433 1-854)
chain: T3 sequence
With B4, the binding entry in test [2] is “binds”.

B5: Endogenous ScCdc24p (protein, UniProt P11433 1-854)
chain: T3 sequence
Regarding B5, the binding result in test [1] is “binds”.
